# Data: article PMC9478157
# By UniProt entry, the sequences of proteins in these tests, tags left out. Residues count along the entry.
# UniProt P23772: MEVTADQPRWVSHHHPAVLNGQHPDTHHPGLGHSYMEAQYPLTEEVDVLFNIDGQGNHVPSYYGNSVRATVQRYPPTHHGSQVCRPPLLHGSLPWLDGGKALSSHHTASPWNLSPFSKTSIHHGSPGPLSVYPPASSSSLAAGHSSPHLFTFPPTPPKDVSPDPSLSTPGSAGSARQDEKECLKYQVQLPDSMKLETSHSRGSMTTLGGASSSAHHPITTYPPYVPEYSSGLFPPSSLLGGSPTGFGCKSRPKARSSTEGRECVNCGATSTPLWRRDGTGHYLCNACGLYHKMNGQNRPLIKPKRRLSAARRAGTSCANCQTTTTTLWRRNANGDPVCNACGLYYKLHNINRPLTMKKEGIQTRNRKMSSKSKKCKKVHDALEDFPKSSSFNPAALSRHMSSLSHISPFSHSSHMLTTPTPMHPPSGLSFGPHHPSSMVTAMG
# UniProt P14211, residues 18-416: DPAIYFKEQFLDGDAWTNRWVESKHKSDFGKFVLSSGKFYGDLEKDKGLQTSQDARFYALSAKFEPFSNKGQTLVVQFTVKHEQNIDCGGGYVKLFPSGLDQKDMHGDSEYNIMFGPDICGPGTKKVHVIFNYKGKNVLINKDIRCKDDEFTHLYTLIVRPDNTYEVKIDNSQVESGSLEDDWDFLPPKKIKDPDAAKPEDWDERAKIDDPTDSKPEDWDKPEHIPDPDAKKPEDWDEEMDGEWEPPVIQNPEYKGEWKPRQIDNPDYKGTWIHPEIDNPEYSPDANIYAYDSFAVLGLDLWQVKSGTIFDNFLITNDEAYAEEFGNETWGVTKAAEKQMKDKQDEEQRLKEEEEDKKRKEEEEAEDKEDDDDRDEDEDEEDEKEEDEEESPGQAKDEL
# Where two headings read alike, the source gives them in different places. No constants are given. Whether binding was seen depends on the method and setting. Binding seen in cells or lysates may run through a third protein. These calls come from enrichment with a bait or labelling near it, and not all partners need be listed.
# Tests used:
# [1] = biological target: GATA3 (endogenous, ILC2s) (mouse (endogenous in liver and lung ILC2s)) (UniProt P23772); assay: affinity purification with mass spectrometry; IP of lysates of cultured liver ILC2s (1 x 10^7) and lung ILC2s (1.8 x 10^6) with anti-GATA3 antibody or IgG control, SDS-PAGE, LC-MS/MS; IP buffer 50 mM Tris-HCl pH 7.5, 150 mM NaCl, 10% glycerol, 0.1% Tween, 1 mM EDTA; hits by Mascot score, anti-GATA3/IgG control > 1
# [2] = biological target: GATA3 (endogenous, ILC2s) (mouse (endogenous in liver and lung ILC2s)) (UniProt P23772); assay: as above; remark: listed apart in the source
binding [1],binding [2],Molecule
binds,–,"Calr (endogenous, liver ILC2s) (from UniProt P14211 18-416)"
–,binds,"JunD (endogenous, ILC2s) (protein, UniProt P15066 1-341) METPFYGEEALSGLAAGASSVAGATGAPGGGGFAPPGRAFPGAPPTSSMLKKDALTLSLAEQGAAGLKPGSATAPSALRPDGAPDGLLASPDLGLLKLASPELERLIIQSNGLVTTTPTSTQFLYPKVAASEEQEFAEGFVKALEDLHKQSQLGAATAATSGAPAPPAPADLAATPGATETPVYANLSSFAGGAGPPGGAATVAFAAEPVPFPPPPGALGPPPPPHPPRLAALKDEPQTVPDVPSFGDSPPLSPIDMDTQERIKAERKRLRNRIAASKCRKRKLERISRLEEKVKTLKSQNTELASTASLLREQVAQLKQKVLSHVNSGCQLLPQHQVPAY"
–,binds,"Pa2g4 (endogenous, liver ILC2s) (protein, UniProt P50580 1-394) MSGEDEQQEQTIAEDLVVTKYKMGGDIANRVLRSLVEASSSGVSVLSLCEKGDAMIMEETGKIFKKEKEMKKGIAFPTSISVNNCVCHFSPLKSDQDYILKEGDLVKIDLGVHVDGFIANVAHTFVIGVAQGTQVTGRKADVIKAAHLCAEAALRLVKPGNQNTQVTEAWNKVAHSFNCTPIEGMLSHQLKQHVIDGEKTIIQNPTDQQKKDHEKAEFEVHEVYAVDVLVSSGEGKAKDAGQRTTIYKRDPSKQYGLKMKTSRAFFSEVERRFDAMPFTLRAFEDEKKARMGVVECAKHELLQPFNVLYEKEGEFVAQFKFTVLLMPNGPMRITSGPFEPDLYKSEMEVQDAELKALLQSSASRKTQKKKKKKASKTVENATSGETLEENGAGD"
–,binds,"JunB (endogenous, ILC2s) (protein, UniProt P09450 1-344) MCTKMEQPFYHDDSYAAAGYGRSPGSLSLHDYKLLKPTLALNLADPYRGLKGPGARGPGPEGSGAGSYFSGQGSDTGASLKLASTELERLIVPNSNGVITTTPTPPGQYFYPRGGGSGGGTGGGVTEEQEGFADGFVKALDDLHKMNHVTPPNVSLGASGGPQAGPGGVYAGPEPPPVYTNLSSYSPASAPSGGSGTAVGTGSSYPTATISYLPHAPPFAGGHPAQLGLSRGASAFKEEPQTVPEARSRDATPPVSPINMEDQERIKVERKRLRNRLAATKCRKRKLERIARLEDKVKTLKAENAGLSSAAGLLREQVAQLKQKVMTHVSNGCQLLLGVKGHAF"
